# Several values for one entry are separate records, joined by “and”; a condition that tells them apart may be missing. Equal entries are not always repeated. This is one part of the list. Shown are side measurements of this screen, not its main read-out; they come without a call. Compounds called inactive in the main read-out are mostly missing here. Words in brackets tell the shape of the fitted curve; partial curves, single points and poor fits give uncertain potencies.
# Experiment: qHTS Assay for Modulators of Lamin A Splicing
# Details: HeLa LMNA splicing GFP/RFP minigene ratio, 48 h
# Summary of the method: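 S3 HeLa stable clones carrying a lamin A-EGFP splicing minigene plus DsRed2 were seeded at 600 cells/well in Opti-MEM with 2% FBS, pin-dosed and incubated 48 h at 37°C. Acumen cytometry (488 nm) gave the GFP/RFP total-intensity ratio.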
# [1] = measured here: RFP viability control channel
# [2] = measured here: GFP splicing reporter channel
SMILES,AC50 [1],AC50 [2]
NC(=O)CSc1nc2scc(-c3ccc(Cl)cc3)c2c(=O)n1Cc1ccccc1,"20 µM [rising, single point]",–
CCCCC(O)(CCCC)C(=O)NN(C(=O)CCl)c1ccccc1,–,"35.5 µM [falling, single point]"
CCOC(=O)N1CCC(=C2c3ccc(Cl)cc3CCc3cccnc32)CC1,"11.2 µM [rising, partial curve, poor fit] and 22.4 µM [falling, single point] and 31.6 µM [rising, single point]","12.6 µM [falling, partial curve] and 35.5 µM [falling, single point] and 35.5 µM [rising, single point]"
CC(C)Oc1cccc(C(=O)NC(=S)Nc2ccccc2)c1,"35.5 µM [rising, single point]","11.2 µM [rising, partial curve, poor fit]"
O=C(COC(=O)c1ccccc1C(=O)N1CCN(c2ccccc2)CC1)Nc1ccc(F)cc1,"11.2 µM [rising, partial curve]",–
Cc1ccc(-c2c[n+](CC(=O)Nc3nc(-c4ccc(F)cc4)cs3)c3n2CCC3)cc1,"12.6 µM [rising, partial curve]","10 µM [rising, partial curve, poor fit]"
Cc1nc2ncnn2c(N2CCN(C(c3ccccc3)c3ccccc3)CC2)c1C,"31.6 µM [rising, single point]","12.6 µM [rising, single point]"
CCN(CC)CC(=O)Nc1cc(N(C)C)nc2ccccc12,–,"3.98 µM [rising, single point]"
CCNC(=S)NNC(=O)c1ccccn1,"14.1 µM [rising, single point]","15.8 µM [rising, single point]"
CCCS(=O)(=O)N1CC(=O)N(c2ccccc2C)C(C)(C(=O)NC2CCCCC2)C1 (stereo not given),–,"10 µM [rising, single point]"
CCOc1ccc(C(=O)/C=C/c2ccc(OC)c(OC)c2)cc1,"15.8 µM [falling, single point]",–
Cc1ccc(C(=O)Nc2nccs2)cc1S(=O)(=O)N1CCCCC1,"11.2 µM [rising, partial curve]","6.31 µM [rising, partial curve, poor fit]"
CC(C)CNC(=O)c1cccc(NC(=O)CCc2ccccc2)c1,"0.158 µM [falling, full curve, poor fit]","0.1 µM [falling, full curve, poor fit]"
